Experiment: general procedure: solution-phase peptide synthesis; pentafluorophenyl ester (Tub-PFP), DIPEA

Row | Substance | step yield (coupling step) [%] | step yield (late stage modification step) [% yield]
1 | (18S,59S)-18-((benzyloxy)carbonyl)-59-((S)-2-(4-(2,5-dioxo-2,5-dihydro-1H-pyrrol-1-yl)butanamido)propanamido)-3,16,21,37,53,60,63,66,69-nonaoxo-1-phenyl-2,25,28,31,34,41,44,47,50-nonaoxa-17,22,38,54,61,64,67,70-octaazadoheptacontan-72-oic acid | 79 | –
2 | (18S,25S)-21,22-bis(3-(2,5-dioxo-2,5-dihydro-1H-pyrrol-1-yl)propanamido)-4,7,10,13,17,20,23,26,30,33,36,39-dodecaoxo-18,25-bis(29-oxo-2,5,8,11,14,17,20,23,26-nonaoxa-30-azatetratriacontan-34-yl)-3,6,9,12,16,19,24,27,31,34,37,40-dodecaazadotetra | – | 82

Reference: US20230115871 (published 2023)
